Experimental data: publication PMC4542694
No constants are given. Whether binding was seen depends on the method and setting. Some entries that bind do so weakly or less than the wild type.

Biological target: T1, neoculin basic subunit (NBS), wild type (Curculigo latifolia) (UniProt P19667)
T1 sequence: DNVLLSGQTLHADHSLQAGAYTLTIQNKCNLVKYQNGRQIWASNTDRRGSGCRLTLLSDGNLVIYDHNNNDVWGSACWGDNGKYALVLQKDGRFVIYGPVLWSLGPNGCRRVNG
Test: reconstitution of the heterodimer by refolding, seen by NMR spectra; isotopically labelled subunit refolded in the presence of its unlabelled counterpart; NMR in 20 mM sodium citrate, pH 3-7, 37°C, 0.03-0.3 mM protein

B1: neoculin acidic subunit (NAS), wild type (protein, UniProt Q6F495 23-135)
chain: DSVLLSGQTLYAGHSLTSGSYTLTIQNNCNLVKYQHGRQIWASDTDGQGSQCRLTLRSDGNLIIYDDNNMVVWGSDCWGNNGTYALVLQQDGLFVIYGPVLWPLGLNGCRSLN
binding: binds
